Laboratory results published in the supplement of paper PMC5949888.
Most values lie at the floor of the assay. Slopes are relative: functional sequences can read slightly below zero.

Tested on: Saccharomyces cerevisiae PS128 hsf1 delta, HSF1(1-493) fusion
Experiment: growth estimate (transactivation domain function in HSF1 fusion, heat-shock survival) (a.u. (slope of normalised read count over time)); higher = stronger growth at 37°C, i.e. more transactivation activity
Settings: library: random library
Description: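 Random 60-nt DNA library encoding peptides of up to 20 aa, fused to the C-terminus of yeast HSF1 residues 1-493 (C-terminal TAD deleted) and expressed from the native HSF1 promoter on a CEN plasmid in hsf1-deleted S. cerevisiae PS128. Cells were selected at 37°C on -trp 5-FOA plates for 0, 2, 4, 6 and 8 days and amplicons were sequenced. Growth estimate is the slope of a robust linear fit of total-sum-normalised read counts (normalised to the first time point) over time, using at least 2 replicates. Sequences are classed functional (TAD activity) above a threshold of -0.13, set from stop-codon control sequences.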

Substance	growth estimate
CHPENVIFDHSLQYSASLSS	< -0.25
CHRDF	< -0.25
CHRGTPALDGGPLVSPTWVA	< -0.25
CHTRVVCIGRSR	< -0.25
CHVDGEGHRTCCIANRKHVR	< -0.25
CHVESKGTR	< -0.25
CHVRAQFAHPFGQGD	< -0.25
CHVSLGRGWDPT	< -0.25
CIFKTR	< -0.25
CIGLLCNNIGSRIRCIASYI	< -0.25
CIGSAPGAGRISCKSTEFRA	-0.245
CIH	< -0.25
CIRAERPVITRTGCMHSSDA	< -0.25
CIRVPILMSNDTARKWCIVR	< -0.25
CISCYASTVLSQQAL	< -0.25
CISLSSVRRGKYCAYPIGGK	< -0.25
CITGTRSLHMDELFTGVPRE	< -0.25
CITSGECSIRDVSQWETLEL	< -0.25
CKEHSGRRYEYNAS	< -0.25
CKK	< -0.25
CKNR	< -0.25
CKQDVWIR	< -0.25
CKRMENYAECETLHR	< -0.25
CKRWREFVGHRTNRI	< -0.25

Substance	growth estimate
CKVSCNMVTV	< -0.25
CLAALHQS	< -0.25
CLALALPCHGRTLHCYNVSE	< -0.25
CLCAQGLFSI	< -0.25
CLDPGLWSPGTVTHSSSWVV	< -0.25
CLDTSDVFVGAIQNSS	< -0.25
CLESCSCGTMGGKITLLSGR	< -0.25
CLGLVRYYSLSIRHCRSKTT	< -0.25
CLKTALMKRFRANGRTLKPY	< -0.25
CLLQ	-0.25
CLMHSVE	< -0.25
CLNSRSHYCTPLRIRRHFIR	< -0.25
CLPGSLHTPWIILRGRVTFR	< -0.25
CLPRVAWLSNTFLRSKTPCR	< -0.25
CLQERVLVLPMGADNHPPYP	< -0.25
CLRDGPYCARAYNYVFPVLM	< -0.25
CLRRHRTCTVYLILGLAGVL	< -0.25
CLSKNDNLQFVGRR	-0.145
CLSPRWE	< -0.25
CLTDADELGRRCVCFQNSGG	< -0.25
CLTNYSFSRIGSLKQKPAVR	< -0.25
CLV	< -0.25
CLVAGQR	< -0.25
CLVPIDVGEPLA	0.0484

Substance	growth estimate
CLYFTLSSGSRCAR	< -0.25
CLYGIPPGPIGTL	< -0.25
CMHIRDLLAASPSGLLNALC	< -0.25
CMHWLYCLSKPRLRFLGFRV	< -0.25
CMKPVEQGGVCGLQIQELKR	< -0.25
CMLQGATSIAACVRLFKAYS	< -0.25
CMNLGANRMGVT	< -0.25
CMRCLRLWPSGPKSHAVPAE	< -0.25
CMSNFLMIST	< -0.25
CMTISIFTRAIVCVTTLAAW	< -0.25
CNCLSGMLIYSHSPSRLVRR	< -0.25
CNEESELRRVIWKTRSSKCL	< -0.25
CNELRASRGRA	< -0.25
CNGIAGLTPPRTRGSLETS	< -0.25
CNKLPDPVHSYIPVYGASPL	< -0.25
CNLQRGLPITSAPLNVAPVA	< -0.25
CNPRQHVWRIFLVDHCGLIS	< -0.25
CNSILYPTRRSQ	< -0.25
CNTNPQSTSVRLSGTGRRFT	< -0.25
CNYAKYLGTNT	< -0.25
CPDYVMGGTCVLPVKISYLT	< -0.25
CPFTELIPFRWGLCQNLTRE	< -0.25
CPGRQVCDGGNPPRGARVQS	< -0.25
CPLFYLRRVPSLGAYSSSRG	< -0.25

Substance	growth estimate
CPLHRELFREPATTLDSSAT	< -0.25
CPLLSGSHRYSGG	< -0.25
CPLRGIGGWAYKVSRCGQSK	< -0.25
CPNIKLV	< -0.25
CPPPLSPKHSIESGM	< -0.25
CPPVVY	< -0.25
CPQARGNGLGLGDAGSEPGQ	< -0.25
CPREYLSNYWSECMRVGE	< -0.25
CPRGMQLLYVKG	< -0.25
CPRITLHPSNGSAVNNPPAQ	< -0.25
CPRPVLDPL	< -0.25
CPSAATCVHSER	< -0.25
CPSELRIVANEPTTGVGSIA	< -0.25
CPVL	< -0.25
CPWTRHYLSH	< -0.25
CPWVKVQVGYKVLVPYRYST	< -0.25
CQDLQQHTDLVIQIIQP	< -0.25
CQEICCGIRAPTPVGTAAEC	< -0.25
CQGDWKLSQVRTLPGKRWNF	< -0.25
CQKWFCLN	< -0.25
CQMFSLTPVSALAGWCLRFG	-0.211
CQPEWGSSPLLVSDWGALQK	< -0.25
CQRRVHAYPPVARIGPRVST	< -0.25
CQTFAEQPSGSIHFELLTQC	< -0.25

Substance	growth estimate
CRAAVRVTAT	< -0.25
CRAEGY	< -0.25
CRD	< -0.25
CREAQMGPRCMDMRRGWRIS	< -0.25
CREGPVSKTRFLDGVNRSAQ	< -0.25
CRFPPRNRLWVPRTITWVRD	< -0.25
CRG	< -0.25
CRGCRDWVGSVFWVRLPRES	< -0.25
CRGPRADWHNRGRPCLCCGL	< -0.25
CRGQKGTAQLGYLMAPVP	< -0.25
CRHKCEGVIGPSVSF	< -0.25
CRINSSRSWTGLSRLPMSPL	< -0.25
CRIP	< -0.25
CRKEG	< -0.25
CRKRSMTRTTRLGLASGRPR	< -0.25
CRKVGYYRATDPRDPPRAVC	< -0.25
CRLDRGAPRTSLILPCVAPS	< -0.25
CRLK	< -0.25
CRLLPLGS	< -0.25
CRLNVDLGRALKATCLGDYC	< -0.25
CRLRMGLGLMLVPITSSIGI	< -0.25
CRPGSSILGQFKA	-0.243
CRPVLFFGHIFKYDVDAKLR	< -0.25
CRQGYYGLYL	-0.137

Reformatted: entries from further up
Substance | growth estimate
CNTNPQSTSVRLSGTGRRFT | < -0.25
CNYAKYLGTNT | < -0.25
CPDYVMGGTCVLPVKISYLT | < -0.25
CPFTELIPFRWGLCQNLTRE | < -0.25
CPGRQVCDGGNPPRGARVQS | < -0.25
CPLFYLRRVPSLGAYSSSRG | < -0.25
CPLHRELFREPATTLDSSAT | < -0.25
CPLLSGSHRYSGG | < -0.25
CPLRGIGGWAYKVSRCGQSK | < -0.25
CPNIKLV | < -0.25
CPPPLSPKHSIESGM | < -0.25
CPPVVY | < -0.25
CPQARGNGLGLGDAGSEPGQ | < -0.25
CPREYLSNYWSECMRVGE | < -0.25
CPRGMQLLYVKG | < -0.25
CPRITLHPSNGSAVNNPPAQ | < -0.25
CPRPVLDPL | < -0.25
CPSAATCVHSER | < -0.25
CPSELRIVANEPTTGVGSIA | < -0.25
CPVL | < -0.25
CPWTRHYLSH | < -0.25
CPWVKVQVGYKVLVPYRYST | < -0.25
CQDLQQHTDLVIQIIQP | < -0.25
CQEICCGIRAPTPVGTAAEC | < -0.25
CQGDWKLSQVRTLPGKRWNF | < -0.25
CQKWFCLN | < -0.25
CQMFSLTPVSALAGWCLRFG | -0.211
CQPEWGSSPLLVSDWGALQK | < -0.25
CQRRVHAYPPVARIGPRVST | < -0.25
CQTFAEQPSGSIHFELLTQC | < -0.25
CRAAVRVTAT | < -0.25
CRAEGY | < -0.25
CRD | < -0.25
CREAQMGPRCMDMRRGWRIS | < -0.25
CREGPVSKTRFLDGVNRSAQ | < -0.25
CRFPPRNRLWVPRTITWVRD | < -0.25
CRG | < -0.25
CRGCRDWVGSVFWVRLPRES | < -0.25
CRGPRADWHNRGRPCLCCGL | < -0.25
CRGQKGTAQLGYLMAPVP | < -0.25
CRHKCEGVIGPSVSF | < -0.25
CRINSSRSWTGLSRLPMSPL | < -0.25
CRIP | < -0.25
CRKEG | < -0.25
CRKRSMTRTTRLGLASGRPR | < -0.25
CRKVGYYRATDPRDPPRAVC | < -0.25
CRLDRGAPRTSLILPCVAPS | < -0.25
CRLK | < -0.25
CRLLPLGS | < -0.25
CRLNVDLGRALKATCLGDYC | < -0.25
CRLRMGLGLMLVPITSSIGI | < -0.25
CRPGSSILGQFKA | -0.243
CRPVLFFGHIFKYDVDAKLR | < -0.25
CRQGYYGLYL | -0.137

Carrying on:

Substance	growth estimate
CRQNALDL	< -0.25
CRRWVVCRLARLGMPLQPGI	< -0.25
CRSACWKGESFEDRKRLPMA	< -0.25
CRSHIIGRPGLKERATLPPQ	< -0.25
CRSKWGAIG	< -0.25
CRSSEGALPAGFARDRTLAI	< -0.25
CRTEKRVEVAHHSTWILEIY	< -0.25
CRVAPRGLCYPAPYQGRMIR	< -0.25
CRVIGAQLHRADCYVQSVPT	< -0.25
CRVIVILRFLGHWICC	< -0.25
CRVKPSVGSRMIKADRSGKP	< -0.25
CRWSITFETVQLVTGPGFVE	< -0.25
CRYGCRRREYATGVRLFTEQ	< -0.25
CSAR	< -0.25
CSAYSPSAESSWLGIGKTWC	< -0.25
CSCDLATSAASGKFRSRHAK	< -0.25
CSCGIDGRPCVRVGDVEKTG	< -0.25
CSDRR	< -0.25
CSDRRGRPVTRGL	< -0.25
CSEEAG	< -0.25
CSEW	< -0.25
CSGC	< -0.25
CSGKWLAVRRPLGNCT	< -0.25
CSGLWGNSMAIFRRSVCLSG	< -0.25

Substance	growth estimate
CSGLYVSYKKVISASFLLTR	< -0.25
CSGMRIQISSGQAMGQQLNA	< -0.25
CSIARAC	< -0.25
CSKRMRLQIT	< -0.25
CSKSDGGGQF	< -0.25
CSLPGG	< -0.25
CSLQLPKVALRVVRVCVGGD	-0.246
CSPRVLIHSEKGWAVDISGK	-0.243
CSQCLIRHGPRN	< -0.25
CSQRLGMFKEGDVYSRRPPR	< -0.25
CSRLAEKSSQPI	< -0.25
CSRLSSSINMLT	< -0.25
CSRVRNMGCGNQRSHFNCEA	< -0.25
CSTPFTAQSLARTSR	< -0.25
CSTSVGVQWVVSSANVRNND	< -0.25
CSVDLLMPKA	-0.246
CSVKWSCRASVWTWAKRAEA	< -0.25
CSVLNGAPRCSRYS	< -0.25
CSVYHAQLPLCLRGGIV	< -0.25
CTARPERTSSRGTAASKGTF	< -0.25
CTCDSSSGCCGFLLDP	< -0.25
CTCGGLVRLGDKIKARN	< -0.25
CTCRSRISLLTGF	< -0.25
CTCVIGDLYIRGSRNMFSSK	< -0.25

Substance	growth estimate
CTELLNLFRGEGMVSTGYSR	< -0.25
CTGFMR	< -0.25
CTGG	< -0.25
CTHRGISNASAALLLKTSHV	< -0.25
CTKLITRKRFPVDSVNGIAI	< -0.25
CTKTVAFNLTSSFLQCEVWL	< -0.25
CTLRW	< -0.25
CTNPMHRLRWECSFQRSRAV	< -0.25
CTPAACHICAS	-0.243
CTPAWERCKGDGRYAVHYCE	< -0.25
CTPEFPELLGTLFWTNKRTL	< -0.25
CTPYSRWPIVATNDLCSSLA	< -0.25
CTQIPSAVGLAIGELLFKDA	< -0.25
CTRSEL	< -0.25
CTSSRGRNCHAELNHLTGHR	< -0.25
CTTLRGWVLAVTETPTTAMI	< -0.25
CTTRARDV	< -0.25
CVAPSRNMVGPHRLCRACHL	< -0.25
CVDKRQMRAKS	< -0.25
